Measurements as given in article PMC8585765, “An OsKala3, R2R3 MYB TF, Is a Common Key Player for Black Rice Pericarp as Main Partner of an OsKala4, bHLH TF” (Frontiers in Plant Science, 2021).

Target: OsKala3 (rice (Oryza sativa)) (UniProt O23891)
Assay: two-hybrid; full-length ORFs each in pGBKT7 (GAL4 BD) and pGADT7 (GAL4 AD), introduced in pairs into yeast MaV203; SD lacking Trp, Leu and His with 10 mM 3-AT; 2 days in the dark at 30°C

binding: binds
Substance: OsKala4 (from UniProt Q948Y2)

Results are given in words; binding and its absence hold for the method and conditions named. A result given as binding can be weak or reduced; the word gives no strength.
